Source: patent US20140329868A1, “METHODS FOR TREATING HYPERTENSION” (TAKEDA PHARMACEUTICALS U.S.A., INC., priority 2005, published 2014)

Tested on: oxonic acid (OA)-induced hyperuricemic model in Sprague-Dawley rats
Assay: Example 4: micropuncture glomerular hemodynamics and mean arterial pressure under anesthesia in normal and OA-dosed rats
Assay type: in vivo
Conditions: end of eight weeks, mean ± SEM
Protocol: Materials and Methods. To produce hyperuricemia, rats received OA (Sigma, St Louis Mo., USA) 750 mg/kg body weight daily by gastric gavage. To investigate the treatment effect of febuxostat (also referred to herein as “Fx”), the drug was administered in drinking water at 50 mg/L (approximately 5-6 mg/kg/day) four weeks after OA dosing while the respective controls received 5.84 mg/L of NaCl in drinking water (to maintain a salt concentration equivalent to the Febuxostat-containing water). […] Body weight, food and water intakes were measured daily. Systolic blood pressure, obtained in conscious rats by a tail cuff sphygmomanometer, and plasma uric acid were measured in all animals at baseline and at the end of four and eight weeks. […]
Micropuncture Procedure to Assess Glomerular Hemodynamics. […] Mean arterial pressure (hereinafter “MAP”) was monitored using a pressure transducer (Model p23 db; Gould, San Juan, PR) connected to the catheter in the femoral artery and recorded on a polygraph (Grass Instruments, Quincy, Mass., USA). […] Intratubular pressure under free-flow (hereinafter “FF”) and stop-flow (hereinafter “SFP”) conditions and peritubular capillary pressure (hereinafter “Pc”) were measured in other proximal tubules with a servo-null device (Servo Nulling Pressure System; Instrumentation for Physiology and Medicine, San Diego, Calif., USA). […]

Cc1nc(-c2ccc(OCC(C)C)c(C#N)c2)sc1C(=O)O [febuxostat, 2-[3-cyano-4-(2-methylpropoxy)phenyl]-4-methylthiazole-5-carboxylic acid]
Hct (Hematocrit) (Normal + FX rats (n = 8)): 0.48 ± 0.01%
Hct (Hematocrit) (OA + Fx rats (n = 10)): 0.46 ± 0.01%
